Test results as given in PubChem BioAssay AID493014 (National Center for Advancing Translational Sciences (NCATS), 2011).
The other results are listed elsewhere or left out. Further columns of the screen follow, without active or inactive calls. The list favours compounds with an active or inconclusive main result. Words in brackets tell the shape of the fitted curve; partial curves, single points and poor fits give uncertain potencies.

Test: qHTS Assay to Find Inhibitors of Chronic Active B-Cell Receptor Signaling
Settings: ABC-DLBCL IkBa-CBG/CBR reporter, luminescence ratio (green luciferase fused to IkBa over red control in TMD8 lymphoma cells), 4 h
Method in brief: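 Concentration-response series (up to 46 uM) were applied to TMD8 dual-reporter cells for 4 h at 37C with doxycycline. Green/red ratio, after filter-overlap correction, defined %Activity; red signal alone was normalised to basal cells and zero luminescence.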

[1] = measured here: CBR red luminescence, cell number
[2] = measured here: IkBa-CBG green luminescence

| Compound | AC50 [1] | AC50 [2] |
| --- | --- | --- |
| CCn1c(C)cc(/C=C2\SC(=O)N(CC(=O)Nc3ccc(C)c(C)c3)C2=O)c1C | 0.0891 µM [rising, full curve, poor fit] |  |
| CC(=O)c1nn(-c2cccc(C(F)(F)F)c2)c(=O)[nH]c1=O | 0.501 µM [rising, partial curve, poor fit] |  |
| COc1ccc2c(c1)cc1n2CCN=C1NCCO | 25.9 µM [rising, single point] |  |
| CN1C(C(=O)NCc2ccco2)CC2Cn3c(nc4cc5ccccc5cc43)C21 (centres undefined) | 3.98 µM [rising, full curve, poor fit] |  |
| NC(=O)c1cc([N+](=O)[O-])ccc1NCc1ccc(N)cc1 | 20.6 µM [falling, single point] |  |
| O=C(CSc1nc2ccccc2o1)N/N=C/c1ccc(C(=O)O)cc1 | 17.8 µM [falling, single point] |  |
| Cc1ccc(C)c(N2CCN(C(=O)CCCn3c(=O)c4cccn4c4cccnc43)CC2)c1 | 22.4 µM [falling, single point] |  |
| Clc1ss/c(=N\c2ccccn2)c1Cl | 29.1 µM [rising, single point] |  |
| CCCOc1nc2c(c(=O)n(C)c(=O)n2C)n1C | 7.08 µM [falling, full curve, poor fit] |  |
| COc1ccc(-n2nc([N+](=O)[O-])c(=NCCc3ccccc3)n2O)cc1 | 16.4 µM [rising, partial curve, poor fit] |  |
| CC(C)(C)NC(=O)C(c1ccncc1)N(Cc1ccc(F)cc1)C(=O)c1ccc(-c2ccccc2)[nH]1 (centres undefined) | 35.5 µM [falling, single point] | 25.1 µM [rising, partial curve, poor fit] |
| Cc1ccc(NC(=S)NC(=O)c2ccc(F)cc2)cc1S(=O)(=O)Nc1ccccc1Cl | 3.66 µM [falling, partial curve, poor fit] |  |
| Cc1cc(C(=O)CSc2nnc(-c3ccccc3)n2C)c(C)n1C | 1.03 µM [rising, partial curve, poor fit] |  |
| COc1cccc(/C=N/NC(=O)c2cc3c(OC)cccc3[nH]2)c1OC | 2.31 µM [falling, partial curve] |  |
| Cc1ccc(NC(=O)CSc2nncn2-c2ccccn2)cc1Cl | 2.24 µM [falling, partial curve] |  |
| Cc1c(C(=O)Nc2nccs2)oc2c(Cl)cccc12 | 0.326 µM [falling, full curve] |  |
| O=C(Nc1cccnc1)c1cc(-c2cccc(Cl)c2)on1 | 8.91 µM [falling, partial curve] |  |
| O=C(/C=C/c1ccco1)N/C(=C\c1ccccc1)C(=O)NCCc1nc2ccccc2[nH]1 | 8.2 µM [falling, partial curve] |  |
| COc1ccc(N/C(C)=C2/C(=O)C(=O)N(CCO)C2c2ccc([N+](=O)[O-])cc2)cc1 (centres undefined) | 5.8 µM [falling, single point] | 2.91 µM [rising, partial curve, poor fit] |
| O=C(NCCc1ccccc1F)c1ccc2c(c1)OCCO2 | 1.41 µM [falling, full curve] |  |
| CN=C(Nc1ccccc1OC)SC1CC(=O)N(c2ccc(C(=O)OC)cc2)C1=O (centres undefined) | 0.58 µM [rising, full curve, poor fit] |  |

| Compound | AC50 [1] | AC50 [2] |
| --- | --- | --- |
| CCOC(=O)C1(CCOc2ccccc2)CCN(Cc2nccn2CC)CC1 | 0.891 µM [rising, full curve, poor fit] |  |
| CC(=O)c1cc(CN2CCC(N3CCC(C(=O)N4CCCC4)CC3)CC2)cs1 | 6.31 µM [falling, partial curve, poor fit] |  |
| N#C/C(=C\C=C\c1ccccc1)C(=O)NCc1cccnc1 | 6.31 µM [falling, partial curve, poor fit] |  |
| COc1cccc(CNC(=O)CN(c2ccc(C(C)C)cc2)S(=O)(=O)c2c(C)noc2C)c1 | 14.1 µM [falling, partial curve, poor fit] |  |
| CC(C)(C)NC(=O)COC(=O)c1ccc(Cl)cc1O | 6.31 µM [rising, single point] |  |
| Oc1ccc(N=Nc2ccc3ccccc3c2)cc1 | 35.5 µM [falling, single point] |  |
| O=C(NCCC1=CCCCC1)C1COc2ccccc2O1 (centres undefined) | 6.31 µM [rising, full curve] |  |
| NC(=O)C1CC(=O)N(c2ccc(OCc3c(F)cccc3Cl)cc2)C1 (centres undefined) | 0.224 µM [falling, full curve] |  |
| CC(C)[C@H](NC(=O)c1ccccc1)C(=O)OCC(=O)c1c(N)n(C)c(=O)n(C)c1=O | 2.91 µM [rising, partial curve] |  |
| O=S1(=O)NC2c3ccccc3CC2O1 (centres undefined) | 35.5 µM [falling, single point] |  |
| O=C(NCCN1CCOCC1)c1cc(-c2ccc(F)cc2)nc2ccccc12 | 25.9 µM [rising, partial curve] |  |
| O=C(NNC(=O)c1ccccc1O)c1cccc(Br)c1 | 2.51 µM [falling, partial curve] |  |
| CCOC(=O)N1CCN(C(=O)CSCC(=O)Nc2nc(-c3ccccc3)cs2)CC1 | 29.1 µM [falling, single point] | 14.6 µM [rising, partial curve, poor fit] |
| Cc1ccc(C)c2sc(N3CCN(C(=O)C(C)(C)C)CC3)nc12 | 3.16 µM [rising, full curve] |  |
| CCc1nnc(NC(=O)c2ccc(NS(=O)(=O)c3ccccc3)cc2)s1 | 1.64 µM [falling, full curve, poor fit] |  |
| CN=C(C)c1c(O)c2ccccc2oc1=O | 16.4 µM [falling, single point] |  |
| CCN1C(=O)/C(=C/C=C2\C=CN(CC)c3ccccc32)SC1=S | 13 µM [rising, partial curve, poor fit] |  |
| Cc1cn(S(=O)(=O)c2ccc(Br)cc2)cn1 | 23.1 µM [rising, single point] |  |
| OCc1ncccc1O | 0.631 µM [falling, full curve, poor fit] |  |
| COc1ccc(-n2nnnc2SCC(=O)c2cc3ccccc3o2)cc1 | 8.91 µM [falling, partial curve, poor fit] |  |

Of the compounds above, 3 contain a tert-butyl group.

| Compound | AC50 [1] | AC50 [2] |
| --- | --- | --- |
| CC(C)(C)NC(=O)C(c1ccncc1)N(Cc1ccc(F)cc1)C(=O)c1ccc(-c2ccccc2)[nH]1 (centres undefined) | 35.5 µM [falling, single point] | 25.1 µM [rising, partial curve, poor fit] |
| CC(C)(C)NC(=O)COC(=O)c1ccc(Cl)cc1O | 6.31 µM [rising, single point] |  |
| Cc1ccc(C)c2sc(N3CCN(C(=O)C(C)(C)C)CC3)nc12 | 3.16 µM [rising, full curve] |  |
